# Measured values as given in PubChem BioAssay AID248 (DTP/NCI, 2004).
# The list does not hold the whole screen: it is rich in T/C values a quarter to a half above the control, in often repeated tests (any T/C) and in doses without a T/C. Other doses and runs of a compound stand elsewhere. T/C is the treated group as % of the vehicle group. Some doses have a count of surviving animals in place of a T/C: the source holds a T/C of zero for them, seemingly a mark for toxic or unscored doses. Some survivor counts are full or nearly so, which does not show that the dose was tolerated: the source hardly ever lists a survival T/C far under the control, and the zero likely stands for such cases as well. Survivors were counted at the toxicity check, usually on the fifth day, unless a day is given; later deaths do not show. Schedules are NCI's codes, taken here to give the interval after Q, in days (D) or hours (H), and the number of doses after X. Some entries were tested several times; the values are given in rising order. Some schedules carry Z or #; the key to these is not given. For survival time, the PubChem record calls one and a half times the control and up active, and a quarter to a half above the control has no call in these data; cut-offs in other NCI protocols can differ.
# System: L1210 leukemia ip in BDF1 mice, survival T/C
# Test: NCI In Vivo Anticancer Drug Screen. Data for tumor model L1210 Leukemia (intraperitoneal) in B6D2F1 (BDF1) mice
# Settings: T/C endpoint: mean survival time, higher T/C = longer survival
# [1] = dose: 100.0 mg/kg/injection, schedule: Q01DX009 (ip), vehicle: saline with Tween-80
# [2] = dose: 200.0 mg/kg/injection, schedule: Q01DX009 (ip), vehicle: saline with Tween-80
# [3] = dose: 400.0 mg/kg/injection, schedule: Q01DX009 (ip), vehicle: saline with Tween-80
# [4] = dose: 100.0 mg/kg/injection, schedule: Q04DX003 (ip), vehicle: saline
# [5] = dose: 200.0 mg/kg/injection, schedule: Q04DX003 (ip), vehicle: saline
# [6] = dose: 400.0 mg/kg/injection, schedule: Q01DX001 (ip), vehicle: saline
# [7] = dose: 400.0 mg/kg/injection, schedule: Q01DX009 (ip), vehicle: saline
# [8] = dose: 200.0 mg/kg/injection, schedule: Q01DX009 (ip), vehicle: Klucel (hydroxypropylcellulose) (HPC)
# [9] = dose: 400.0 mg/kg/injection, schedule: Q04DX003 (ip), vehicle: Klucel (hydroxypropylcellulose) (HPC)
# [10] = dose: 75.0 mg/kg/injection, schedule: Q01DX001 (ip), vehicle: saline
# [11] = dose: 150.0 mg/kg/injection, schedule: Q01DX001 (ip), vehicle: saline
# [12] = dose: 300.0 mg/kg/injection, schedule: Q01DX001 (ip), vehicle: saline
# [13] = dose: 200.0 mg/kg/injection, schedule: Q04DX003 (ip), vehicle: saline with Tween-80
# [14] = dose: 100.0 mg/kg/injection, schedule: Q04DX003 (ip), vehicle: saline with Tween-80
# [15] = dose: 400.0 mg/kg/injection, schedule: Q04DX003 (ip), vehicle: saline with Tween-80
# [16] = dose: 100.0 mg/kg/injection, schedule: Q04DX003 (ip), vehicle: Klucel (hydroxypropylcellulose) (HPC)
# [17] = dose: 200.0 mg/kg/injection, schedule: Q04DX003 (ip), vehicle: Klucel (hydroxypropylcellulose) (HPC)
# [18] = dose: 100.0 mg/kg/injection, schedule: Q01DX001 (ip), vehicle: carboxymethylcellulose (CMC)
# [19] = dose: 100.0 mg/kg/injection, schedule: Q01DX009 (ip), vehicle: Klucel (hydroxypropylcellulose) (HPC)
# [20] = dose: 400.0 mg/kg/injection, schedule: Q04DX003 (ip), vehicle: saline
# [21] = dose: 400.0 mg/kg/injection, schedule: Q01DX009 (ip), vehicle: Klucel (hydroxypropylcellulose) (HPC)
smiles,measurement,setting,value
CS(=O)(=O)c1nc(Cl)c(Cl)c(C#N)c1Cl,survivor count,[1],0 of 6
same,survivor count,[2],0 of 6
same,survivor count,[3],0 of 6
O=C(CCCC(=O)N/N=C/c1ccc2ccccc2n1)N/N=C\c1ccc2ccccc2n1,survivor count,"dose: 200.0 mg/kg/injection, schedule: Q01DX001 (ip), vehicle: other",4 of 4
CC1(CNC(=O)C(=O)NCC2(C)CO2)CO1 (stereo not drawn),T/C,"dose: 35.0 mg/kg/injection, schedule: Q01DX009 (ip), vehicle: saline",136 % of control
same,T/C,"dose: 66.0 mg/kg/injection, schedule: Q01DX Z (ip), vehicle: other",140 % of control
same,T/C,"dose: 75.0 mg/kg/injection, schedule: Q01DX009 (ip), vehicle: saline",128 % of control
same,T/C,"dose: 100.0 mg/kg/injection, schedule: Q01DX Z (ip), vehicle: carboxymethylcellulose (CMC)",134 % of control
same,T/C,"dose: 100.0 mg/kg/injection, schedule: Q01DX Z (ip), vehicle: saline",129 and 130 % of control
same,T/C,[4],136 % of control
same,T/C,"dose: 132.0 mg/kg/injection, schedule: Q04DX003 (ip), vehicle: saline",148 % of control
same,T/C,"dose: 150.0 mg/kg/injection, schedule: Q01DX Z (ip), vehicle: saline",131 % of control
same,T/C,"dose: 200.0 mg/kg/injection, schedule: Q01DX001 (ip), vehicle: saline",135 % of control
same,T/C,[5],140 % of control
same,T/C,"dose: 225.0 mg/kg/injection, schedule: Q01DX Z (ip), vehicle: saline",135 % of control
same,survivor count,"dose: 338.0 mg/kg/injection, schedule: Q01DX Z (ip), vehicle: carboxymethylcellulose (CMC)",2 of 6
same,T/C,"dose: 338.0 mg/kg/injection, schedule: Q01DX Z (ip), vehicle: saline",148 % of control
same,T/C,[6],138 % of control
same,survivor count,[6],0 of 4
same,survivor count,[7],4 of 6
same,survivor count,"dose: 500.0 mg/kg/injection, schedule: Q01DX Z (ip), vehicle: other",3 of 6
same,survivor count,"dose: 600.0 mg/kg/injection, schedule: Q01DX001 (ip), vehicle: saline",5 of 6
same,survivor count,"dose: 750.0 mg/kg/injection, schedule: Q01DX Z (ip), vehicle: other",0 of 6
CCC(C)C(CCCCN(C)C)(CNC(=O)CN(CC)CC)c1cccc2ccccc12 (stereo not drawn),survivor count,"dose: 200.0 mg/kg/injection, schedule: Q01DX009 (ip), vehicle: saline",0 of 6
same,survivor count,[7],0 of 6
CCCCCCCCCCCCCCCCCC(=O)N/N=C/c1ccc(Cl)cc1,survivor count,[8],6 of 6
O=C(O)CCC1CCCCC1=O (stereo not drawn),survivor count,[9],3 of 6
C[S+]1C=Cc2ccccc2C1c1ccc(Cl)cc1 (stereo not drawn),survivor count,"dose: 50.0 mg/kg/injection, schedule: Q04DX002 (ip), vehicle: Klucel (hydroxypropylcellulose) (HPC)",3 of 3
same,survivor count,"dose: 100.0 mg/kg/injection, schedule: Q04DX002 (ip), vehicle: Klucel (hydroxypropylcellulose) (HPC)",1 of 3
N#CCC(N)=S,survivor count,"dose: 100.0 mg/kg/injection, schedule: Q04DX002 (ip), vehicle: gum acacia",0 of 3
CC(=O)OC1CC(OC2C(O)CC(OC3C(O)CC(OC4CCC5(C)C(CCC6C5CCC5(C)C(C7=CC(=O)OC7)CCC65O)C4)OC3C)OC2C)OC(C)C1OC1OC(CO)C(O)C(O)C1O (stereo not drawn),survivor count,"dose: 20.0 mg/kg/injection, schedule: Q01DX001 (ip), vehicle: saline",3 of 6
same,survivor count,"dose: 40.0 mg/kg/injection, schedule: Q01DX001 (ip), vehicle: saline",1 of 6
c1ccc(N2CCNCC2)nc1,survivor count,[10],2 of 6
same,survivor count,[11],0 of 6
same,survivor count,[12],0 of 6
CCOP(=O)(Oc1ccc([N+](=O)[O-])cc1)c1cccc(Br)c1 (stereo not drawn),survivor count,[10],0 of 6
same,survivor count,[11],0 of 6
same,survivor count,[12],0 of 6
O=C(Oc1cc([N+](=O)[O-])cc([N+](=O)[O-])c1)C(c1ccccc1)c1ccccc1,survivor count,"dose: 50.0 mg/kg/injection, schedule: Q01DX009 (ip), vehicle: saline with Tween-80",3 of 3
same,survivor count,[1],3 of 3
same,survivor count,[2],3 of 3
CC1C2CCC(C2)C1C(=O)O (stereo not drawn),survivor count,[13],6 of 6
CCCCOc1cc(C(=O)NCCN(CC)CC)c2ccccc2n1,survivor count,[14],0 of 6
same,survivor count,[13],0 of 6
same,survivor count,[15],0 of 6
CCc1c(C)[nH]c2c1C(=O)CCC2,survivor count,[10],0 of 6
same,survivor count,[11],0 of 6
same,survivor count,[12],0 of 6
NC1(N)Sc2nc3ccccc3nc2S1,survivor count,"dose: 200.0 mg/kg/injection, schedule: Q04DX002 (ip), vehicle: saline with Tween-80",3 of 3
same,survivor count,"dose: 400.0 mg/kg/injection, schedule: Q04DX002 (ip), vehicle: saline with Tween-80",0 of 3
O=C(Nc1cccc(C(=O)O)c1)Nc1ccc(Cl)c(C(F)(F)F)c1,survivor count,[3],6 of 6
OC1(c2cccc(C(F)(F)F)c2)CCN(C2CC2)CC1,survivor count,[16],0 of 6
same,survivor count,[17],0 of 6
same,survivor count,[9],0 of 6
CCCCNC(=O)C1C=C2c3cccc4c3C(CN4)CC2N(C)C1 (stereo not drawn),survivor count,[1],6 of 6
O=C(CCl)c1ccc2c(c1)Nc1ccccc1S2,survivor count,[18],2 of 4
Cn1nc(CC(=O)O)c(C(N)=O)c1N,survivor count,[19],2 of 3
NC1=Nc2cccc3cccc(c23)N1,survivor count,[16],2 of 6
same,survivor count,[17],0 of 6
same,survivor count,[9],0 of 6
CCCCCCCCCCNC(=O)C[n+]1cccc(C(=O)N(CC)CC)c1,survivor count,[4],1 of 6
same,survivor count,[5],0 of 6
same,survivor count,[20],0 of 6
Br/C=C(\Br)C[N+]12CN3CN(CN(C3)C1)C2,survivor count,[2],6 of 6
same,survivor count,[3],0 of 6
CCCCCCCCC1CCC(N)CC1 (stereo not drawn),survivor count,[21],6 of 6
C[N+]1(CCCl)CCOCC1,survivor count,"dose: 80.0 mg/kg/injection, schedule: Q01DX009 (ip), vehicle: Klucel (hydroxypropylcellulose) (HPC)",6 of 6
same,survivor count,[19],3 of 6
same,survivor count,[8],0 of 6
same,survivor count,[21],0 of 6
CN(C)C(N1CC1)N1CC1,survivor count,"dose: 100.0 mg/kg/injection, schedule: Q04DX002 (ip), vehicle: saline",0 of 3
same,survivor count,"dose: 200.0 mg/kg/injection, schedule: Q04DX002 (ip), vehicle: saline",0 of 3
same,survivor count,"dose: 400.0 mg/kg/injection, schedule: Q04DX002 (ip), vehicle: saline",0 of 3
COc1cc(C)cc(C(=O)O)c1O,survivor count,[18],4 of 4
same,survivor count,"dose: 400.0 mg/kg/injection, schedule: Q01DX001 (ip), vehicle: carboxymethylcellulose (CMC)",4 of 4
CC(C(=O)c1ccccc1)C(N[N+](C)(C)C)c1ccccc1 (stereo not drawn),survivor count,[14],0 of 3
same,survivor count,[13],0 of 3
same,survivor count,[15],0 of 3
CC1CCCCC1OC(=O)CCN1CC1 (stereo not drawn),survivor count,"dose: 50.0 mg/kg/injection, schedule: Q01DX009 (ip), vehicle: Klucel (hydroxypropylcellulose) (HPC)",5 of 6
same,survivor count,[19],1 of 6 and 2 of 6
same,survivor count,[17],1 of 6
same,survivor count,[9],0 of 6
CC(C)(C)C1=C[P+](c2ccccc2)(c2ccccc2)C(C(C)(C)C)=C[P+]1(c1ccccc1)c1ccccc1,survivor count,[4],0 of 6
same,survivor count,[5],0 of 6
same,survivor count,[20],0 of 6
CCC(C)N(CCCOC(=O)c1ccc(N)cc1)C(C)CC (stereo not drawn),survivor count,[4],3 of 6
same,survivor count,[5],0 of 6
same,survivor count,[20],0 of 6
